Measurements taken from the supplement of paper PMC4604168 (melanoma cell lines).
The other results are listed elsewhere or left out. Repeats are few or missing, and single values can be far off.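 The apoptosis fraction was the count of cleaved-PARP antibody-stained nuclei relative to all DNA-stained nuclei, imaged in 1,536-well plates. Screening doses were set so most cells survived, and baseline and induced cleaved-PARP levels vary greatly across cell lines.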

system: CBRC034 (line from a melanoma biopsy); assay: cleaved PARP positive nuclei fraction relative to DMSO control; melanoma cells; higher = more apoptosis; conditions: library dose: low library concentration; 72 h

Going from `COc1ccc(COc2ccc(Cc3cnc(N)nc3N)cc2OC)cc1` + C/C(O)=C(\C#N)C(=O)Nc1cc(Br)ccc1Br [LFM-A13] (first compound 1 µM, partner dose 2 µM) to `COc1cc2c(Oc3ccc4[nH]c(C)cc4c3F)ncnc2cc1OCCCN1CCCC1` [cediranib] + Cc1cc(SCc2sc(-c3ccc(C(F)(F)F)c(F)c3)nc2C)ccc1OCC(=O)O [GW0742] (first compound 0.4 µM, partner dose 2 µM), the “cleaved PARP positive nuclei fraction” value falls from 309% to 36.5%.

Compared with `O=C(Oc1ccc([N+](=O)[O-])cc1)N1CCC(C(O)(c2ccc3c(c2)OCO3)c2ccc3c(c2)OCO3)CC1` + CCCCCCCCCCCC1=C(O)C(=O)C=C(O)C1=O [Embelin] (first compound 1 µM, partner dose 1.2 µM), `O=C(Nc1ccccc1)c1cc([N+](=O)[O-])ccc1Cl` + O=C(Oc1ccc([N+](=O)[O-])cc1)N1CCC(C(O)(c2ccc3c(c2)OCO3)c2ccc3c(c2)OCO3)CC1 [JZL184] (first compound 2 µM, partner dose 1 µM) is lower in “cleaved PARP positive nuclei fraction” value: 124% for the first, 51.7% for the second.

First: COc1cc(N2CCC(N3CCN(C)CC3)CC2)ccc1Nc1ncc(Cl)c(Nc2ccccc2S(=O)(=O)C(C)C)n1 + O=C(Oc1ccc([N+](=O)[O-])cc1)N1CCC(C(O)(c2ccc3c(c2)OCO3)c2ccc3c(c2)OCO3)CC1 [JZL184] (first compound 0.08 µM, partner dose 1 µM)
Second: COC(=O)c1sccc1S(=O)(=O)Nc1ccc(Nc2ccccc2)cc1OC + C/C(O)=C(\C#N)C(=O)Nc1cc(Br)ccc1Br [LFM-A13] (first compound 1 µM, partner dose 2 µM)
The “cleaved PARP positive nuclei fraction” value of the first is higher: 92.1% for the first, 86.3% for the second.

First: O=C(Oc1ccc([N+](=O)[O-])cc1)N1CCC(C(O)(c2ccc3c(c2)OCO3)c2ccc3c(c2)OCO3)CC1 + CC(C)CCN1c2nc(Nc3cc(F)c(O)c(F)c3)ncc2N(C)C(=O)C1C [BID1870] (first compound 1 µM, partner dose 0.2 µM)
Second: Cc1cc(SCc2sc(-c3ccc(C(F)(F)F)c(F)c3)nc2C)ccc1OCC(=O)O + C/C(O)=C(\C#N)C(=O)Nc1cc(Br)ccc1Br [LFM-A13] (first compound 2 µM, partner dose 2 µM)
The “cleaved PARP positive nuclei fraction” value of the first is higher: 106% for the first, 79.2% for the second.

Going from `C[As](C)SC[C@H](NC(=O)CC[C@H](N)C(=O)O)C(=O)NCC(=O)O` [Darinaparsin] + CCN(CC)CCCCNc1ncc2cc(-c3cc(OC)cc(OC)c3)c(NC(=O)NC(C)(C)C)nc2n1 [PD173074] (first compound 0.4 µM, partner dose 0.1 µM) to `COC(=O)c1sccc1S(=O)(=O)Nc1ccc(Nc2ccccc2)cc1OC` + O=C(Oc1ccc([N+](=O)[O-])cc1)N1CCC(C(O)(c2ccc3c(c2)OCO3)c2ccc3c(c2)OCO3)CC1 [JZL184] (first compound 1 µM, partner dose 1 µM), the “cleaved PARP positive nuclei fraction” value rises from 34.8% to 84.1%.

Going from `O=C(Nc1cccc(Cl)c1)Nc1ncc(CCNc2ncnc3ccsc23)s1` + O=C(Oc1ccc([N+](=O)[O-])cc1)N1CCC(C(O)(c2ccc3c(c2)OCO3)c2ccc3c(c2)OCO3)CC1 [JZL184] (first compound 0.0008 µM, partner dose 1 µM) to `Cc1cc(SCc2sc(-c3ccc(C(F)(F)F)c(F)c3)nc2C)ccc1OCC(=O)O` + Oc1nc(-c2ccc(C(F)(F)F)cc2)nc2c1CSCC2 [XAV939] (first compound 2 µM, partner dose 2 µM), the “cleaved PARP positive nuclei fraction” value rises from 80.5% to 131%.

Compared with `CC1(C)NC(=O)N(c2ccc([N+](=O)[O-])c(C(F)(F)F)c2)C1=O` [nilutamide] + Cc1cc(SCc2sc(-c3ccc(C(F)(F)F)c(F)c3)nc2C)ccc1OCC(=O)O [GW0742] (first compound 1 µM, partner dose 2 µM), `Cn1nnc2c(C(N)=O)ncn2c1=O` [temozolomide] + C/C(O)=C(\C#N)C(=O)Nc1cc(Br)ccc1Br [LFM-A13] (first compound 2 µM, partner dose 2 µM) is lower in “cleaved PARP positive nuclei fraction” value: 190% for the first, 46.1% for the second.

In the case of `C[As](C)SC[C@H](NC(=O)CC[C@H](N)C(=O)O)C(=O)NCC(=O)O` [Darinaparsin] + COc1ccc(COc2ccc(Cc3cnc(N)nc3N)cc2OC)cc1 [GW2580] (first compound 0.4 µM, partner dose 1 µM), the “cleaved PARP positive nuclei fraction” value is reported as 123%.
